This note sets out measurements from patent US20190046659A1.

Sequences of proteins named here, by UniProt entry; tags and fusion partners are left off. Residues count along the entry.
UniProt P51654, residues 25-559: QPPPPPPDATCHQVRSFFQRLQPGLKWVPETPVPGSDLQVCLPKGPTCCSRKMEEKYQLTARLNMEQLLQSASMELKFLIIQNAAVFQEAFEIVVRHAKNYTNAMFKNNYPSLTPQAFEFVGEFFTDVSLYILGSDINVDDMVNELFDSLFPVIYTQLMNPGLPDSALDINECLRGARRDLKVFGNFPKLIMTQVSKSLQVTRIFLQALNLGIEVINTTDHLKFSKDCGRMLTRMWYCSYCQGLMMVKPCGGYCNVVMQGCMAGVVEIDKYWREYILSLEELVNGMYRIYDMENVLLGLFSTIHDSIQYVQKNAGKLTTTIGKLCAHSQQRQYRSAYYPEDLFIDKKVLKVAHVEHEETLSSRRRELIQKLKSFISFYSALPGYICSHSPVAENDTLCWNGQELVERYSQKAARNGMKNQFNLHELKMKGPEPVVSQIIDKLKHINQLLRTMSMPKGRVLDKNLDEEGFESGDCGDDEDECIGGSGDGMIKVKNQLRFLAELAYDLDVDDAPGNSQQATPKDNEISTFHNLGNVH

Substitutions are numbered along the chain they refer to. No constants are given. Whether binding was seen depends on the method and setting. Some binding calls cover weakened binding; strength is not graded here.

The target in experiment [1] is human GPC3 recombinant protein (purchased from Shanghai Rui Jin Biotechnology Co., Ltd.) (human) (UniProt P51654). The experiment in a line: SPR (Biacore T200), human GPC3 amine-coupled to the chip, antibody injected, multi-cycle kinetics, reference subtracted. (Surface plasmon resonance follows binding to a sensor surface in real time, without labels.)
Experiment [2] shares this target. As to the kind of experiment: SPR, Biacore T200 (summary of Table 2).
For experiment [3], the target named is human GPC3 protein GPC3(H) (human) (UniProt P51654). The experiment in a line: ELISA screen of hybridoma clones on coated GPC3(H).
The target of experiment [4] is recombinant human GPC3 (rhGPC3), purchased from Andy Biosciences (Shanghai) Co., Ltd. (human) (UniProt P51654). The experiment in a line: ELISA, 100 ng coated antigen per well, 100 ng antibody per well, HRP rabbit anti-human Fc detection. A general note: In an ELISA, binding on a coated surface is turned into a signal by an enzyme label.
For experiment [5] the target is unchanged. The experiment in a line: ELISA, 100 ng/well coated antigen, 100 ng antibody per well, HRP rabbit anti-human Fc detection, OD450.
For experiment [6], the target named is human GPC3 recombinant protein (purchased from Shanghai Rui Jin Biotechnology Co., Ltd.) (human) (UniProt P51654). The experiment in a line: SPR, Biacore T200 (summary of Table 1).
Experiment [7] has the same target. The experiment in a line: SPR (Biacore T200), antibody captured on anti-human IgG (Fc) chip, GPC3 injected at 5, 10, 20, 40, 80 nM, single-cycle kinetics.
For experiment [8], the target named is recombinant human GPC3 (rhGPC3), purchased from Andy Biosciences (Shanghai) Co., Ltd. (human) (UniProt P51654). The experiment in a line: ELISA on recombinant human GPC family members (FIG. 5).

B1: humanized antibody Y035 (antibody, V domains shown)
VH: EVQLVQSGAEVKKPGASVKVSCKASGYTFSDYEMHWVRQAPGQGLEWMGAIHPGSGDTAYNQRFKGRVTITADKSTSTAYMELSSLRSEDTAVYYCARFYSYAYWGQGTLVTVSA
VL: DIVMTQTPLSLPVTPGEPASISCRSSQSLVHSNGNTYLQWYLQKPGQSPQLLIYKVSNRFSGVPDRFSGSGSGTDFTLKISRVEAEDVGVYYCSQSIYVPYTFGQGTKLEIKR
In the case of B1, the binding entry in experiment [1] and in experiment [2] was “binds” throughout.

B2: parental murine monoclonal antibody 5A5 (antibody, V domains shown)
VH: QVQLQQSGTELVRPGASVKLSCKALGYTFTDYEMHWVKQTPVHGLEWIGAIHPGSGDTAYNQRFKGKATLTADKSSSTAYMEYSSLTSEDSAVYYCTRFYSYAYWGQGTLVTVSA
VL: B1 VL with I2V, T14S, P15L, E17D, P18Q, Q50K, S70R, V88L, Y92F, Q105G
With B2, in experiment [3], the binding entry was “binds”.

B3: P7D4 mutant single chain antibody am20 (scFv, not shown: a dimerising Fc or GST)
chain: QVQLQESGGGLVQPGRSLRLSCAASGFTFSTYAMNWVRQAPGKGLEWVSAISMSGESTYYADSVKGRFTISRDNSKNTLYLQMNSLRAEDTAVYYCAKDRRGSHADAFDVWGQGTLVTVSSGGGGSGGGGSGGGGSQSALTQPPSASGSPGQSVTISCTGTSSDVGGYNYVSWYQQYPGKAPKLLIYGNSNRPSGVPDRFSGSKSGTSASLAITGLQAEDGADYYCQSYDSSLRVVFGGGTKVTVLG
Take B3: the binding entry in experiment [4], in experiment [5], in experiment [6], in experiment [7] and in experiment [8] was “binds” each time.
